The supplement of paper PMC4604168 (melanoma cell lines)
Some of the results follow. Repeats are few or missing, and single values can be far off.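 Imaging used 1,536-well plates; nuclei positive for cleaved PARP by antibody were divided by total DNA-stained nuclei to yield the apoptosis fraction. Doses for screening kept most cells viable, and cell lines differ markedly in resting and induced cleaved-PARP levels.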

Each compound was assayed on CBRC017 (line from a melanoma biopsy) (assay: cleaved PARP positive nuclei fraction relative to DMSO control; melanoma cells; higher = more apoptosis). Conditions: library dose: low library concentration; 72 h.

Going from `CC(C)(C)c1cnc(CSc2cnc(NC(=O)C3CCNCC3)s2)o1` + Oc1cc(-c2nc(-c3ccccc3)[nH]c2-c2ccncc2)ccc1Cl [L779450] (first compound 0.01 µM, partner dose 0.2 µM) to `Cc1nc(Nc2ncc(C(=O)Nc3c(C)cccc3Cl)s2)cc(N2CCN(CCO)CC2)n1` [dasatanib] + COC(=O)c1sccc1S(=O)(=O)Nc1ccc(Nc2ccccc2)cc1OC [GSK0660] (first compound 0.004 µM, partner dose 1 µM), the “cleaved PARP positive nuclei fraction” value falls from 70.5% to 52.6%.

Going from `C#Cc1cccc(Nc2ncnc3cc(OCCOC)c(OCCOC)cc23)c1` [erlotinib] + O=C(O)C(=O)Nc1sc2c(c1C(=O)O)CCNC2 [TCS401] (first compound 0.8 µM, partner dose 1.66667 µM) to `Cn1c(Nc2ccc(C(F)(F)F)cc2)nc2cc(Oc3ccnc(-c4ncc(C(F)(F)F)[nH]4)c3)ccc21` + CCCCCCCCCCCC1=C(O)C(=O)C=C(O)C1=O [Embelin] (first compound 0.08 µM, partner dose 1.2 µM), the “cleaved PARP positive nuclei fraction” value rises from 147% to 230%.

Compared with `Cn1cncc1[C@@](N)(c1ccc(Cl)cc1)c1ccc2c(c1)c(-c1cccc(Cl)c1)cc(=O)n2C` [tipifarnib] + COc1cc2ncnc(Nc3ccc(Oc4ccccc4)cc3)c2cc1OC [SrcI1] (first compound 0.01 µM, partner dose 2 µM), `C#Cc1cccc(Nc2ncnc3cc(OCCOC)c(OCCOC)cc23)c1` [erlotinib] + COc1cc2ncnc(Nc3ccc(Oc4ccccc4)cc3)c2cc1OC [SrcI1] (first compound 0.8 µM, partner dose 2 µM) is lower in “cleaved PARP positive nuclei fraction” value: 89.8% for the first, 88.2% for the second.
